Source: US10770169B2, “Method of providing a treatment to a subject based on a dynamic pathway map” (THE REGENTS OF THE UNIVERSITY OF CALIFORNIA, priority 2010, dated 2020)

System: panel of 55 breast cancer cell lines
Assay: Cell growth inhibition assay (Cell Titer Glo, 72 h, 9 doses; GI50, TGI, LC50)
Type: cell-based
Conditions: Homo sapiens

Structure (SMILES)	GI50 (HCC202, cell line HCC202)	GI50 (HCC202, HCC202 cell line, censored GI50 values)
COc1cc2ncnc(Nc3ccc(F)c(Cl)c3)c2cc1OCCCN1CCOCC1 [Gefitinib]	457 nM	
COc1cc2ncnc(Nc3ccc(F)c(Cl)c3)c2cc1OCCCN1CCOCC1 [Iressa]		457 nM
